Article PMC8153610, “Oleacein Intestinal Permeation and Metabolism in Rats Using an In Situ Perfusion Technique” (Pharmaceutics, 2021)

Settings: rat, in vivo, 60 min, pH 7
Method: The transport medium (TM; pH 7, 9.7 g/L HBSS buffered with HEPES 10 mM) was used to infuse the compounds via the intestine. […] Red phenol was assayed at 0.1 mg/mL. The stability of these test compounds, sampled at different times, was monitored in the perfusion solution at 37 °C for 60 min.
Differences were considered significant at p < 0.05.

## COc1ccc2cc([C@H](C)C(=O)O)ccc2c1 [Naproxen]
  Absorption (%): 43.96 ± 7.58%
